Laboratory results taken from publication doi:10.1101/2020.10.07.329979.
No constants are given. Whether binding was seen depends on the method and setting. Binding seen in cells or lysates may run through a third protein. Binding calls can cover weak binding; strength is not graded here. Where a sequence is shown, tags or fusion partners need not be part of it.

Target: T1, FBN2 fused to the N-terminal half of YFP (Arabidopsis thaliana) (UniProt O82291)
T1 sequence: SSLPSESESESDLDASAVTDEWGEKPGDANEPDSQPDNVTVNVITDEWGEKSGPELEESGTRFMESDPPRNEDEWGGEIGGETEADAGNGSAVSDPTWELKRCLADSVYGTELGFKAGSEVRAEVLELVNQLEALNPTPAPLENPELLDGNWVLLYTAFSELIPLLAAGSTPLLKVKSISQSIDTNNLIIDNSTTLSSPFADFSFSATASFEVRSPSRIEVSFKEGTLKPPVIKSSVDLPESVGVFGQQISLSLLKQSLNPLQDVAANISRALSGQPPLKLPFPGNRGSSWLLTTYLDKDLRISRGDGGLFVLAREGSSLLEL
Assay: split reporter

binding: binds
Substance: APE1 fused to the C-terminal moiety of CFP (from UniProt Q2HIR7)
